PubChem BioAssay AID1159584 – Peter MacCallum Cancer Centre, 2016
The deposit covers about 18,000 reagents; shown is a part drawn at random. Further read-outs or replicates are left out here. No sequences are given here. Not stated in the record: the amount of reagent, the time to read-out.

- Assay: 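Knock-downs that harm CDH1-null cells more than parental MCF10A cells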 (primary screen)
- Cell system: human MCF10A breast epithelial cells, parental and CDH1-null
- Reagent: siRNA against human genes
- Measured: 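Cell viability by CellTiter-Glo ATP luminescence, each line scaled to the mean of mock wells across plates, then CDH1-null over parental ratio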
- Scale: CDH1-null / parental viability ratio: higher = CDH1-null cells survive relatively better than parental

gene	PubChem SID	CDH1-null / parental viability ratio
ADAMTS12 (ADAM metallopeptidase with thrombospondin type 1 motif 12)	SID152153086	0.97
CYP2S1 (cytochrome P450 family 2 subfamily S member 1)	SID152148008	0.91
SPTLC1 (serine palmitoyltransferase long chain base subunit 1)	SID135621233	0.9
AP1M2 (adaptor related protein complex 1 subunit mu 2)	SID134316354	1.06
CMTM6 (CKLF like MARVEL transmembrane domain containing 6)	SID134315203	0.87
OR1D2 (olfactory receptor family 1 subfamily D member 2)	SID135621705	1.15
KCNMB1	SID134313301	1.09
HIF1AN (hypoxia inducible factor 1 subunit alpha inhibitor)	SID135620781	1.1
DEF8 (differentially expressed in FDCP 8 homolog)	SID135624030	1.03
OR51A4 (olfactory receptor family 51 subfamily A member 4)	SID134329912	0.88
ABI1 (abl interactor 1)	SID135621342	1.11
NARF (nuclear prelamin A recognition factor)	SID152148779	1.14
MED29 (mediator complex subunit 29)	SID152153115	0.67
TRPC5	SID152154562	1.19
ETV7 (ETS variant transcription factor 7)	SID134321837	0.82
CTDNEP1 (CTD nuclear envelope phosphatase 1)	SID134321775	1.06
RIPOR2 (RHO family interacting cell polarization regulator 2)	SID134317816	0.96
ZHX2 (zinc fingers and homeoboxes 2)	SID135623374	1.15
PLK1 (polo like kinase 1)	SID56478632	0.66
TMA16 (translation machinery associated 16 homolog)	SID135624152	0.83
LMNTD2 (lamin tail domain containing 2)	SID134322213	0.87
PIGU (phosphatidylinositol glycan anchor biosynthesis class U)	SID152151501	0.9
LY6G6C (lymphocyte antigen 6 family member G6C)	SID134318736	1.07
ZC3HAV1 (zinc finger CCCH-type containing, antiviral 1)	SID134321385	0.87
CHST14 (carbohydrate sulfotransferase 14)	SID134313674	1.28
CRIP3 (cysteine rich protein 3)	SID135625053	0.88
NCLN (nicalin)	SID152156296	0.95
KYAT3 (kynurenine aminotransferase 3)	SID134319533	0.52
KCTD18 (potassium channel tetramerization domain containing 18)	SID152151924	0.82
HRC (histidine rich calcium binding protein)	SID152151726	0.95
ZNF99 (zinc finger protein 99)	SID135625571	0.89
INTS13 (integrator complex subunit 13)	SID135624019	1.13
PNPLA1 (patatin like domain 1, omega-hydroxyceramide transacylase)	SID134313879	1.12
ITLN2 (intelectin 2)	SID134313457	1.12
DENND2D (DENN domain containing 2D)	SID134320567	0.95
WNT8A (Wnt family member 8A)	SID152155986	0.85
CCDC61 (coiled-coil domain containing 61)	SID152153623	1.18
APOM (apolipoprotein M)	SID134315349	0.45
MUC2 (mucin 2, oligomeric mucus/gel-forming)	SID152151005	0.83
KRT23 (keratin 23)	SID134321274	0.95
LRRC37A (leucine rich repeat containing 37A)	SID152155954	0.98
MED28 (mediator complex subunit 28)	SID152155386	0.82
CYP27B1 (cytochrome P450 family 27 subfamily B member 1)	SID152156429	1.04
LRRC32 (leucine rich repeat containing 32)	SID134316396	0.96
LRRC75A (leucine rich repeat containing 75A)	SID134329543	1.09
STARD3NL (STARD3 N-terminal like)	SID134322442	0.96
FER1L5 (fer-1 like family member 5)	SID152151042	1.04
RPL10 (ribosomal protein L10)	SID134316454	1.24
GAS2 (growth arrest specific 2)	SID134316335	1.05
ZKSCAN5 (zinc finger with KRAB and SCAN domains 5)	SID152152051	0.94
CEBPA (CCAAT enhancer binding protein alpha)	SID135621195	0.79
FAM216A (family with sequence similarity 216 member A)	SID152155604	0.79
GPR143 (G protein-coupled receptor 143)	SID134311116	1.34
PSMD5 (proteasome 26S subunit, non-ATPase 5)	SID134316311	1.2
DUSP3 (dual specificity phosphatase 3)	SID134312830	1.43
PIK3CA	SID135620605	0.78
ASTN1 (astrotactin 1)	SID134325200	1.26
ADGRD1 (adhesion G protein-coupled receptor D1)	SID134326736	1.48
TOPORS	SID134323793	0.94
WDR81 (WD repeat domain 81)	SID152155317	0.88
ZNF318 (zinc finger protein 318)	SID152156400	1.35
BHLHE41 (basic helix-loop-helix family member e41)	SID134314692	0.89
BTG1 (BTG anti-proliferation factor 1)	SID134315925	1.17
TRPV4	SID134310308	0.93
ATM (ATM serine/threonine kinase)	SID152150358	0.95
ADCY6 (adenylate cyclase 6)	SID134311927	0.9
NHERF2 (NHERF family PDZ scaffold protein 2)	SID152151235	0.98
SLC4A4	SID152155827	1.12

A run of entries of the results above, as a working copy:
gene	PubChem SID	CDH1-null / parental viability ratio
DEF8 (differentially expressed in FDCP 8 homolog)	SID135624030	1.03
OR51A4 (olfactory receptor family 51 subfamily A member 4)	SID134329912	0.88
ABI1 (abl interactor 1)	SID135621342	1.11
NARF (nuclear prelamin A recognition factor)	SID152148779	1.14
MED29 (mediator complex subunit 29)	SID152153115	0.67
TRPC5	SID152154562	1.19
ETV7 (ETS variant transcription factor 7)	SID134321837	0.82
CTDNEP1 (CTD nuclear envelope phosphatase 1)	SID134321775	1.06
RIPOR2 (RHO family interacting cell polarization regulator 2)	SID134317816	0.96
ZHX2 (zinc fingers and homeoboxes 2)	SID135623374	1.15
PLK1 (polo like kinase 1)	SID56478632	0.66
